Where a name gives a salt, the structure may show the parent alone. This is one part of the list. Many values rest on one well or one pass, so single values are uncertain.
Columns and labels:
Assay in all cases: reduction in cell viability relative to untreated/vehicle; higher = more growth inhibition
Settings in all cases: 200 nM; 72 h
M229P = test system: M229P (parental melanoma line)
M229R = test system: M229R (matched melanoma line resistant to BRAF inhibitors)
M238P = test system: M238P (parental melanoma line)
M238R = test system: M238R (matched melanoma line resistant to BRAF inhibitors)
M249P = test system: M249P (parental melanoma line)
M249R = test system: M249R (matched melanoma line resistant to BRAF inhibitors)
UACC62P = test system: UACC62P (parental melanoma line)
UACC62R = test system: UACC62R (matched melanoma line resistant to BRAF inhibitors)

SMILES | reduction in cell viability (M229P) [%] | reduction in cell viability (M229R) [%] | reduction in cell viability (M238P) [%] | reduction in cell viability (M238R) [%] | reduction in cell viability (M249P) [%] | reduction in cell viability (M249R) [%] | reduction in cell viability (UACC62P) [%] | reduction in cell viability (UACC62R) [%]
Nc1nc(=O)n([C@@H]2CS[C@H](CO)O2)cc1F [Emtricitabine] | < 0 | < 0 | < 0 | < 0 | < 0 | < 0 | < 0 | < 0
CO[C@H]1/C=C/O[C@@]2(C)Oc3c(C)c(O)c4c(c3C2=O)C2=NC3(CCN(CC(C)C)CC3)NC2=C(NC(=O)/C(C)=C\C=C\[C@H](C)[C@H](O)[C@@H](C)[C@@H](O)[C@@H](C)[C@H](OC(C)=O)[C@@H]1C)C4=O [Rifabutin] | < 0 | 4.71 | < 0 | < 0 | < 0 | < 0 | < 0 | < 0
CCN(CC)CCCC(C)Nc1ccnc2cc(Cl)ccc12 (stereo not given) [Chloroquine] | 1.28 | < 0 | < 0 | < 0 | < 0 | 16.2 | < 0 | < 0
CC(C)C[C@H](NC(=O)c1cc2ccccc2s1)C(=O)N1CCN(C(=O)[C@H](CO)NS(=O)(=O)c2ccc(Cl)cc2Cl)CC1 | < 0 | < 0 | 87.4 | < 0 | < 0 | < 0 | < 0 | < 0
COc1ncc(-c2ccc3nccc(-c4ccnnc4)c3c2)cc1NS(=O)(=O)c1ccc(F)cc1F | 69.1 | 53.3 | 55.2 | 46.4 | 76.5 | 63.5 | 72 | 75.8
CC1=NN(c2ccc(C)c(C)c2)C(=O)/C1=N\Nc1cccc(-c2cccc(C(=O)O)c2)c1O [Eltrombopag] | < 0 | < 0 | < 0 | < 0 | < 0 | < 0 | < 0 | < 0
Cc1cn2c(-c3cn[nH]c3)cnc2c(Nc2ccc(C(=O)N3CCNCC3)cc2F)n1 | < 0 | < 0 | < 0 | < 0 | < 0 | < 0 | < 0 | < 0
CCC(=O)NC[C@H](Cc1ccc(OCCc2nc(-c3ccccc3)oc2C)cc1)N/C(C)=C\C(=O)c1ccc(C(F)(F)F)cc1 | < 0 | < 0 | < 0 | < 0 | < 0 | < 0 | < 0 | < 0
CC1(C)CNc2cc(NC(=O)c3cccnc3NCc3ccncc3)ccc21 [Motesanib] | < 0 | < 0 | < 0 | < 0 | < 0 | < 0 | 0.15 | < 0
COc1cc(NCc2ccc3nc(N)nc(N)c3c2C)cc(OC)c1OC [Trimetrexate] | 43.5 | 65.9 | 53.7 | < 0 | 44.1 | 6.35 | 46.4 | 45.2
C=C1C[C@@]2(O)O[C@@]3(C[C@H]2C(C)C)[C@@H](C)CC[C@@H]13 [Curcumol] | < 0 | < 0 | < 0 | < 0 | < 0 | < 0 | < 0 | < 0
CC(C)(C)NC(=O)[C@@H]1CN(Cc2cccnc2)CCN1C[C@@H](O)C[C@@H](Cc1ccccc1)C(=O)N[C@H]1c2ccccc2C[C@H]1O [Indinavir sulfate] | < 0 | < 0 | < 0 | < 0 | < 0 | 1.15 | < 0 | < 0
C[C@H](NCc1ccc(OCc2cccc(F)c2)cc1)C(N)=O [Safinamide mesilate] | < 0 | < 0 | < 0 | < 0 | < 0 | < 0 | 8.92 | < 0
C[C@](Cc1c[nH]c2ccccc12)(NC(=O)OC1[C@H]2C[C@@H]3C[C@@H](C[C@H]1C3)C2)C(=O)NC[C@H](NC(=O)CCC(=O)O)c1ccccc1 (stereo not given in full) | < 0 | < 0 | 3.17 | < 0 | < 0 | < 0 | < 0 | < 0
CC(C)C[C@H](CC(=O)O)C(=O)N[C@@H](Cc1c[nH]c2ccccc12)C(=O)N[C@@H](C)c1ccccc1 | < 0 | < 0 | < 0 | < 0 | < 0 | < 0 | < 0 | < 0
O=C(O)C(=O)O.[NH-][C@@H]1CCCC[C@H]1[NH-].[Pt+2] [Oxaliplatin] | < 0 | < 0 | < 0 | < 0 | < 0 | < 0 | 9.06 | < 0
CCN1C[C@H](C)n2c(c(O)c3c(=O)n(Cc4ccc(F)c(Cl)c4)nc(C(=O)NC)c32)C1=O | < 0 | < 0 | < 0 | < 0 | < 0 | < 0 | < 0 | < 0
C[C@H](c1ccc(F)cc1CCCC(=O)O)N(c1cc(F)ccc1F)S(=O)(=O)c1ccc(Cl)cc1 | < 0 | < 0 | < 0 | < 0 | < 0 | < 0 | < 0 | < 0
COc1cc2nc(-c3cc(F)ccc3O)nc(N[C@@H]3CNC[C@H]3C(C)(C)O)c2cc1OC | < 0 | < 0 | < 0 | < 0 | < 0 | < 0 | < 0 | < 0
CN(C)Cc1c(C(=O)NCCOc2ccc(C(=O)NO)cc2)oc2ccccc12 [Abexinostat] | 15.2 | 16.1 | 45.9 | 19.6 | 54.4 | 41.7 | 50 | 68.9

SMILES | reduction in cell viability (M229P) [%] | reduction in cell viability (M229R) [%] | reduction in cell viability (M238P) [%] | reduction in cell viability (M238R) [%] | reduction in cell viability (M249P) [%] | reduction in cell viability (M249R) [%] | reduction in cell viability (UACC62P) [%] | reduction in cell viability (UACC62R) [%]
COc1cc2nccc(Oc3ccc(NC(=O)Nc4cc(C)on4)c(Cl)c3)c2cc1OC [Tivozanib] | < 0 | < 0 | < 0 | < 0 | < 0 | < 0 | < 0 | < 0
CO/N=C(\C(=O)N[C@@H]1C(=O)N2C(C(=O)O)=C(CSC(=O)c3ccco3)CS[C@H]12)c1csc(N)n1 [Ceftiofur hydrochloride] | < 0 | < 0 | < 0 | < 0 | < 0 | < 0 | < 0 | < 0
C[C@@H](NC(=O)c1ncnc(N)c1Cl)c1ncc(C(=O)Nc2cc(C(F)(F)F)c(Cl)cn2)s1 | < 0 | < 0 | < 0 | < 0 | < 0 | < 0 | 8.02 | < 0
COC(=O)Nc1ccc(-c2nc(N3CCOCC3)c3cnn(C4CCN(Cc5cccnc5)CC4)c3n2)cc1 | < 0 | < 0 | 0.72 | < 0 | < 0 | 0.74 | < 0 | < 0
Cc1ccc(N(CC2=NCCN2)c2cccc(O)c2)cc1 [Phentolamine mesilate] | < 0 | < 0 | < 0 | < 0 | < 0 | < 0 | < 0 | < 0
Nc1ccc(C(=O)c2cc3c(ccc4ccccc43)[nH]2)cc1 | 3.64 | 24.9 | 19.4 | < 0 | 10.7 | 11 | 16.2 | 43.9
CN1CCCC(n2nc(Cc3ccc(Cl)cc3)c3ccccc3c2=O)CC1 (stereo not given) [Azelastine hydrochloride] | < 0 | < 0 | < 0 | < 0 | < 0 | < 0 | < 0 | < 0
N#Cc1cc(NC(=O)Nc2nnc(-c3ccncc3)s2)ccc1-c1cn[nH]c1 | < 0 | < 0 | < 0 | < 0 | < 0 | < 0 | < 0 | < 0
OC[C@H]1O[C@@H](Oc2ccc(O)cc2)[C@H](O)[C@@H](O)[C@@H]1O [Arbutin] | < 0 | < 0 | < 0 | < 0 | < 0 | 4.25 | < 0 | < 0
CC(=O)Nc1nc(C)c(-c2ccc(Cl)c(S(=O)(=O)NCCO)c2)s1 | < 0 | < 0 | < 0 | < 0 | < 0 | < 0 | < 0 | < 0
Cc1ccc(-n2nc(C(C)(C)C)cc2NC(=O)Nc2ccc(OCCN3CCOCC3)c3ccccc23)cc1 [Doramapimod] | < 0 | < 0 | < 0 | < 0 | < 0 | < 0 | < 0 | < 0
COC(=O)N[C@H](C(=O)N1CCC[C@H]1c1ncc(-c2ccc(-c3ccc(-c4cnc([C@@H]5CCCN5C(=O)[C@@H](NC(=O)OC)C(C)C)[nH]4)cc3)cc2)[nH]1)C(C)C [Daclatasvir dihydrochloride] | < 0 | < 0 | < 0 | < 0 | < 0 | 5.93 | 8.29 | < 0
CN(CCOc1ccc(NS(C)(=O)=O)cc1)CCc1ccc(NS(C)(=O)=O)cc1 [Dofetilide] | < 0 | < 0 | < 0 | < 0 | < 0 | < 0 | < 0 | < 0
CC(C)(Sc1cc(C(C)(C)C)c(O)c(C(C)(C)C)c1)Sc1cc(C(C)(C)C)c(O)c(C(C)(C)C)c1 [Probucol] | < 0 | < 0 | < 0 | < 0 | < 0 | < 0 | < 0 | < 0
Cc1ccccc1C(C(=O)NC1CCCCC1)N(C(=O)Cn1ccnc1C)c1cccc(F)c1 (stereo not given) | < 0 | < 0 | < 0 | < 0 | < 0 | < 0 | 1.77 | < 0
CCCCc1oc2ccc(NS(C)(=O)=O)cc2c1C(=O)c1ccc(OCCCN(CCCC)CCCC)cc1 [Dronedarone] | < 0 | < 0 | < 0 | < 0 | < 0 | 4.16 | 0.69 | < 0
CCOc1cc2ncc(C#N)c(Nc3ccc(OCc4ccccn4)c(Cl)c3)c2cc1NC(=O)/C=C/CN(C)C [Neratinib] | 22 | < 0 | 28.4 | 2.01 | 14.2 | 2.97 | 18.5 | 4.2
O=C(CCCCCCC(=O)Nc1ccc([C@H]2O[C@@H](CSc3nc(-c4ccccc4)c(-c4ccccc4)o3)C[C@@H](c3ccc(CO)cc3)O2)cc1)NO [Tubacin] | 3.25 | < 0 | < 0 | 12.4 | < 0 | 7.31 | < 0 | < 0
Cc1cc(Nc2cc(CN3CCOCC3)c3nc(C)c(Cc4ccc(Cl)cc4F)n3n2)n[nH]1 [Gandotinib] | < 0 | 12 | < 0 | < 0 | < 0 | < 0 | < 0 | < 0
COC(=O)Nc1nc2cc(C(=O)c3ccccc3)ccc2[nH]1 [Mebendazole] | 22.1 | 48.5 | 45.8 | 42.9 | 25 | 29 | 38.6 | 80.6

Complete entries as entered above.
C[C@](Cc1c[nH]c2ccccc12)(NC(=O)OC1[C@H]2C[C@@H]3C[C@@H](C[C@H]1C3)C2)C(=O)NC[C@H](NC(=O)CCC(=O)O)c1ccccc1 (stereo not given in full) is entered as reduction in cell viability (M229P) [%]: < 0; reduction in cell viability (M229R) [%]: < 0; reduction in cell viability (M238P) [%]: 3.17; reduction in cell viability (M238R) [%]: < 0; reduction in cell viability (M249P) [%]: < 0; reduction in cell viability (M249R) [%]: < 0; reduction in cell viability (UACC62P) [%]: < 0; reduction in cell viability (UACC62R) [%]: < 0
COc1cc2nc(-c3cc(F)ccc3O)nc(N[C@@H]3CNC[C@H]3C(C)(C)O)c2cc1OC is entered as reduction in cell viability (M229P) [%]: < 0; reduction in cell viability (M229R) [%]: < 0; reduction in cell viability (M238P) [%]: < 0; reduction in cell viability (M238R) [%]: < 0; reduction in cell viability (M249P) [%]: < 0; reduction in cell viability (M249R) [%]: < 0; reduction in cell viability (UACC62P) [%]: < 0; reduction in cell viability (UACC62R) [%]: < 0
